Source: patent US5633345A (priority 1992, dated 1997)

Test: general procedure: solution-phase peptide synthesis; PyBroP/DIEA; WSCD.HCl/HOObt
Settings: coupling step, HCl salt (deprotected intermediates)

Substance	step yield
Boc-L-aIle-L-ROMeNva-L-Leu-L-βHOMeVal-D-Hmp-L-MeVal-L-Phe-L-MePhe-L-Pro-OPac (R: Bzl)	50.0%
Boc-L-Leu-L-MeThr(Bzl)-D-Hmp-L-MeVal-L-Phe-L-MePhe-L-Pro-OPac	52.8%
Boc-L-Glu(OBzl)-L-MeVal-L-Leu-L-βHOMeVal-D-Hmp-L-MeVal-L-Phe-L-MePhe- L-Pro-OPac	91.9%
Boc-L-aIle-L-MeVal-L-Leu-L-βHOMeVal-D-Hmp-L-MeVal-L-Phe-L-MePhe-L-Pro-OPac	59.6%
Boc-L-aIle-L-MeVal-L-Glu(OcHex)-L-βHOMeVal-D-Hmp-L-MeVal-L-Phe-L-MePhe-L-Pro	76.1%
Boc-L-aIle-L-Hmb-L-Leu-L-βHOMeVal-D-Hmp-L-MeVal-L-Phe-L-MePhe-L-Pro-OPac	64.5%
Boc-L-Glu(OcHex)-L-βHOMeVal-D-Hmp-L-MeVal-L-Phe-L-MePhe-L-Pro-OPac	72.2%
Boc-L-aIle-L-MeVal-L-Leu-L-MeThr(Bzl)-D-Hmp-L-MeVal-L-Phe-L-MePhe-L-Pro-OPac	29.9%
Boc-L-MeVal-L-Phe-L-MePhe-L-Pro-OPac	86.1%
Boc-L-Leu-L-βHOMeVal-D-Hmp-L-MeVal-L-Phe-L-MePhe-L-Pro-OPac	78.7%

Same assay, conditions: cyclisation step, HCl salt (deprotected intermediates)

Substance	cyclisation yield	outcome
PEPTIDE1{[GluOBzl].[MeVal].L.[bHOMeVal].[D-Hmp].[MeVal].F.[MePhe].P}$PEPTIDE1,PEPTIDE1,1:R1-9:R2$$$V2.0	5.3%	
PEPTIDE1{[aIle].[MeVal].L.[bHOMeVal].[D-Hmp].[MeVal].F.[MePhe].P}$PEPTIDE1,PEPTIDE1,1:R1-9:R2$$$V2.0	45.2%	the target aureobasidin A could not be synthesized
Cyclo(L-aIle-L-ROMeNva-L-Leu-L-βHOMeVal-D-Hmp-L-MeVal-L-Phe-L-MePhe-L-Pro) (R: Bzl)	34%	
Cyclo(L-aIle-L-MeVal-L-Leu-L-MeThr(Bzl)-D-Hmp-L-MeVal-L-Phe-L-MePhe-L-Pro)	15.3%	
Cyclo(L-aIle-L-MeVal-L-GluOR-L-βHOMeVal-D-Hmp-L-MeVal-L-Phe-L-MePhe-L-Pro) (R: cHex)	28.6%	
PEPTIDE1{[aIle].[L-Hmb].L.[bHOMeVal].[D-Hmp].[MeVal].F.[MePhe].P}$PEPTIDE1,PEPTIDE1,1:R1-9:R2$$$V2.0	27.2%	

Same assay, conditions: late stage modification step, HCl salt

Substance	step yield
HCl.cndot.H-L-aIle-L-MeVal-L-Leu-L-βHOMeVal-D-Hmp-L-MeVal-L-Phe-L-MePhe-L-Pro-OH	91.1%
HCl.cndot.H-L-Leu-L-βHOMeVal-D-Hmp-L-MeVal-L-Phe-L-MePhe-L-Pro-OPac	93.0%
HCl.cndot.H-L-aIle-L-MeVal-L-Glu(OcHex)-L-βHOMeVal-D-Hmp-L-MeVal-L-Phe-L-MePhe-L-Pro-OH	95.5%
HCl.cndot.H-L-Glu(OcHex)-L-βHOMeVal-D-Hmp-L-MeVal-L-Phe-L-MePhe-L-Pro-OPac	87.2%
HCl.cndot.H-L-MeVal-L-Phe-L-MePhe-L-Pro-OPac	93.0%

Same assay, conditions: late stage modification step, HCl salt (deprotected intermediates)

Substance	step yield
Boc-L-aIle-L-ROMeNva-L-Leu-L-βHOMeVal-D-Hmp-L-MeVal-L-Phe-L-MePhe-L-Pro-OH (R: Bzl)	93.8%
cyclo(L-GluOR-L-MeVal-L-Leu-L-βHOMeVal-D-Hmp-L-MeVal-L-Phe-L-MePhe-L- Pro) (R: n-octyl)	53.6%
cyclo(L-GluOR-L-MeVal-L-Leu-L-βHOMeVal-D-Hmp-L-MeVal-L-Phe-L-MePhe-L- Pro) (R: trans-3-hexenyl)	80.1%
Boc-L-aIle-L-MeVal-L-Leu-L-MeThr(Bzl)-D-Hmp-L-MeVal-L-Phe-L-MePhe-L-Pro-OH	100%
PEPTIDE1{[aIle].[HOMeNva].L.[bHOMeVal].[D-Hmp].[MeVal].F.[MePhe].P}$PEPTIDE1,PEPTIDE1,1:R1-9:R2$$$V2.0	87.3%
cyclo(L-GluOR-L-MeVal-L-Leu-L-βHOMeVal-D-Hmp-L-MeVal-L-Phe-L-MePhe-L- Pro) (R: cis-3-hexenyl)	84.5%
Boc-L-aIle-L-MeVal-L-Leu-L-βHOMeVal-D-Hmp-L-MeVal-L-Phe-L-MePhe-L-Pro-OH	100%
Cyclo(L-GluOR-L-MeVal-L-Leu-L-βHOMeVal-D-Hmp-L-MeVal-L-Phe-L-MePhe-L- Pro) (R: n-butyl)	95.2%
Boc-L-aIle-L-MeVal-L-Glu(OcHex)-L-βHOMeVal-D-Hmp-L-MeVal-L-Phe-L-MePhe-L-Pro-OH	100%
PEPTIDE1{[aIle].[MeVal].L.[MeThr].[D-Hmp].[MeVal].F.[MePhe].P}$PEPTIDE1,PEPTIDE1,1:R1-9:R2$$$V2.0	66.3%
HCl.cndot.H-L-aIle-L-ROMeNva-L-Leu-L-βHOMeVal-D-Hmp-L-MeVal-L-Phe-L-MePhe-L-pro-OH (R: Bzl)	93.0%
cyclo(L-RONva-L-MeVal-L-Leu-L-βHOMeVal-D-Hmp-L-MeVal-L-Phe-L-MePhe-L- Pro) (R: n-hexanoyl)	100%
cyclo(L-GluOR-L-MeVal-L-Leu-L-βHOMeVal-D-Hmp-L-MeVal-L-Phe-L-MePhe-L- Pro) (R: n-decyl)	98.7%
HCl.cndot.H-L-aIle-L-MeVal-L-Leu-L-MeThr(Bzl)-D-Hmp-L-MeVal-L-Phe-L-MePhe- L-Pro-OH	94.2%
PEPTIDE1{[HONva].[MeVal].L.[bHOMeVal].[D-Hmp].[MeVal].F.[MePhe].P}$PEPTIDE1,PEPTIDE1,1:R1-9:R2$$$V2.0	71%
Cyclo(L-aIle-L-MeVal-L-Glu-L-βHOMeVal-D-Hmp-L-MeVal-L-Phe-L-MePhe-L-Pro)	90.2%
cyclo(L-GluOR-L-MeVal-L-Leu-L-βHOMeVal-D-Hmp-L-MeVal-L-Phe-L-MePhe-L- Pro) (R: n-hexyl)	94.4%
Boc-L-aIle-L-Hmb-L-Leu-L-βHOMeVal-D-Hmp-L-MeVal-L-Phe-L-MePhe-L-Pro-OH	100%
HCl.cndot.H-L-Leu-L-MeThr(Bzl)-D-Hmp-L-MeVal-L-Phe-L-MePhe-L-Pro-OPac	86.0%
HCl.cndot.H-L-Glu(OBzl)-L-MeVal-L-Leu-L-βHOMeVal-D-Hmp-L-MeVal-L-Phe- L-MePhe-L-Pro-OH	97.8%
PEPTIDE1{[aIle].[MeVal].[HONva].[bHOMeVal].[D-Hmp].[MeVal].F.[MePhe].P}$PEPTIDE1,PEPTIDE1,1:R1-9:R2$$$V2.0	49.5%
HCl.cndot.H-L-aIle-L-Hmb-L-Leu-L-βHOMeVal-D-Hmp-L-MeVal-L-Phe-L-MePhe-L-Pro-OH	85.9%
Boc-L-Glu(OBzl)-L-MeVal-L-Leu-L-βHOMeVal-D-Hmp-L-MeVal-L-Phe-L-MePhe- L-Pro-OH	74%
Cyclo(L-Glu-L-MeVal-L-Leu-L-βHOMeVal-D-Hmp-L-MeVal-L-Phe-L-MePhe-L-Pro)	89.4%

HELM strings list residues between dots; [ac] is acetyl, [am] amide, other brackets name non-standard units.
